Consider 64 compounds from PMC12670160, “A drug-repurposing screen of FDA- and EMA-approved drugs identifies two NF-κB inhibitors active against eumycetoma” (Journal of Antimicrobial Chemotherapy, 2025).

SMILES strings stand for the structures. Counter-ions that a name gives are not always drawn. Hit rate of the full screen: of about 5,300 compounds, about 130 (2.5%) showed an effect of 50% or more. Some of the results follow.

The experiment relates to M. mycetomatis strain mm55. The conditions noted are these: primary screen, metabolic activity vs growth control; 96 h, 2 µM; inhibitor.
For `NC(=O)NS(=O)(=O)c1ccc(N)cc1` [ONC0005380, sulfacarbamide], the “% viability” value came out at 111.9%. In the case of `C[C@@H]1CN(Cc2ccc(F)cc2)[C@@H](C)CN1C(=O)c1cc2c(C(=O)C(=O)N(C)C)cn(C)c2cc1Cl` [ONC0002696, talmapimod], the “% viability” value is reported as 73.55%.

In the case of `C=CC(=O)Nc1cccc(Oc2nc(Nc3ccc(N4CCN(C)CC4)cc3)nc3ccsc23)c1` [ONC0001325, olmutinib], the “% viability” value stood at 84.69%. As for `O=C1CCCC(=O)C1C(=O)c1ccc(C(F)(F)F)cc1[N+](=O)[O-]` [ONC0002397, nitisinone], the figure is 105.1%; as for `CC(C(=O)O)c1ccc(C(=O)c2ccccc2)s1` (stereo not shown) [ONC0005409, tiaprofenicacid], 96.41%. As for `Fc1ccc(CN2CCC(Nc3ccc(C(F)(F)F)nn3)CC2)cc1F` [ONC0003766, jnj37822681], the figure is 83.83%; as for `NC(CC(F)C(=O)O)C(=O)O` (stereo not shown) [ONC0003677, 4fluorodlglutamic acid], 63.49%. As for `c1nc(CC2CCNCC2)c[nH]1` [ONC0002513, immepip], the figure is 60.16%. For `O=C(O)C1=CCCN(CCON=C(c2ccccc2)c2ccccc2)C1` [ONC0002475, nnc711], the “% viability” value turned out to be 101.1%. In the case of `O=C1O[C@@H](CO)[C@H](O)[C@@H](O)[C@@H]1O` [ONC0003123, gluconolactone], the “% viability” value is recorded as 67.77%. As for `COc1cc(/C=C/C(=O)N2CCCCCCC2)cc(OC)c1OC` [ONC0005326, cinoctramide], the figure is 67.25%. As for `CN(C)CC/C=C1/c2ccccc2COc2ccc(CC(=O)O)cc21` [ONC0004990, olopatadine hydrochloride opatanol], the figure is 101%; as for `CC[C@H](C)C[C@H](C)CCCCCCCCC(=O)N[C@H]1C[C@@H](O)[C@@H](NCCN)NC(=O)[C@@H]2[C@@H](O)CCN2C(=O)[C@H]([C@H](O)CCN)NC(=O)[C@H]([C@H](O)[C@@H](O)c2ccc(O)cc2)NC(=O)[C@@H]2C[C@@H](O)CN2C(=O)[C@H]([C@@H](C)O)NC1=O` [ONC0004327, caspofungin acetate], 124.4%; as for `CN(C)Cc1ccc(S(=O)(=O)n2ccc(/C=C/C(=O)NO)c2)cc1` [ONC0005234, resminostat ras2410], 190.8%.

On to `O=S(=O)(O)CC(S)CS` (stereo not shown) [ONC0002911, dmps], for which the “% viability” value was 98.97%. Consider `c1ccc(CN(CC2=NCCN2)c2ccccc2)cc1` [ONC0003232, antazoline phosphate], for which the “% viability” value is reported as 94.34%. As for `CC(=O)O[C@]1(C(C)=O)CC[C@H]2[C@@H]3CCC4=CC(=O)CC[C@]4(C)[C@H]3CC[C@@]21C` [ONC0002124, hydroxyprogesteroneacetate], the figure is 61.66%; as for `Cc1c(C(N)=O)cc([N+](=O)[O-])cc1[N+](=O)[O-]` [ONC0002846, dinitolmide], 91.36%. As for `CNC(=O)[C@H]1O[C@@H](n2cnc3c(NCc4cccc(I)c4)ncnc32)[C@H](O)[C@@H]1O` [ONC0001664, ibmeca], the figure is 70.88%; as for `C=C1C(=O)[C@]23[C@H](O)[C@H]1CC[C@@H]2[C@@]12CO[C@]3(O)C[C@@H]1C(C)(C)CC[C@@H]2O` [ONC0004938, oridonin isodonol], 72.08%; as for `CC(C)C(=O)OC[C@H]1O[C@@H](n2ccc(N)nc2=O)[C@](C)(F)[C@@H]1OC(=O)C(C)C` [ONC0001098, mericitabine], 60.9%. As to `C=CCN1CCN(c2nc3ccccc3nc2C#N)CC1` [ONC0003610, 3aqc], the “% viability” value was determined as 60.26%.

As to `C[C@H]1CC2C3CCC4=CC(=O)C=C[C@]4(C)[C@@]3(F)[C@@H](O)C[C@]2(C)[C@@]1(O)C(=O)CO` (stereo partly shown) [ONC0003301, betamethasone], the “% viability” value is 54.24%. As for `N=C(N)N` [ONC0003274, guanidine hydrochloride], the figure is 94.58%; as for `CCN(CC)CCOC(=O)C1(c2ccccc2)CCCC1` [ONC0002837, caramiphen parpanil], 99.65%. As for `NC(=O)OCCCc1ccccc1` [ONC0003674], the figure is 51.8%.

`COc1ccc(C[C@@H](C)[C@@H](C)Cc2ccc(OC)c(OC)c2)cc1OC` [ONC0005582, terameprocol]: the “% viability” value is reported as 82.28%.

For `C[C@H]1CC[C@H](n2c3cnccc3c3cnc(Nc4ccc5c(n4)CCN(C(=O)CO)C5)nc32)CC1` [ONC0002264, amg 925], the “% viability” value is 79.7%. As for `COc1cc(/C=C2\CCC/C(=C\c3ccc(O)c(OC)c3)C2=O)ccc1O` [ONC0002119, cyclovalone], the figure is 87.12%; as for `Cc1ncc([N+](=O)[O-])n1CC(O)CCl` (stereo not shown) [ONC0003978, ornidazole], 69.31%; as for `N#Cc1ccc2[nH]cc(CCCCN3CCN(c4ccc5oc(C(N)=O)cc5c4)CC3)c2c1` [ONC0003916, vilazodone hydrochloride], 81.34%.

As to `Cc1cccc(C)c1NC(=O)C1CCCCN1C` (stereo not shown) [ONC0002445, mepivacaine hydrochloride], the “% viability” value is given as 111.1%. Regarding `COc1ccc(C2C(=O)c3ccccc3C2=O)cc1` [ONC0004151, anisindione], the “% viability” value is 108.5%. `O=C(c1ccccn1)c1cnn2c(-c3ccncc3)ccnc12` [ONC0001896, ocinaplon]: the “% viability” value was 62.52%. As for `CN(C)c1ccc2nc3ccc(=[N+](C)C)cc-3sc2c1` [ONC0004147, methylene blue], the figure is 79.22%; as for `NC(=O)N1c2ccccc2CC(O)c2ccccc21` (stereo not shown) [ONC0000143, licarbazepine], 71.66%; as for `O=C(Nc1ccccc1)c1ccccc1O` [ONC0003338, acetylsalicylanilide], 88%. With `FC(F)(F)c1ccc(CNc2ccc(Cc3c[nH]c4ncc(Cl)cc34)cn2)cn1` [ONC0001192, pexidartinib], the “% viability” value worked out at 74.33%. Consider `COc1ccccc1C(=O)Nc1cccc(NC(=O)c2cccc(C)c2)c1` [ONC0003018, ml365], for which the “% viability” value was 119.2%.

With `OCCNC1CCCc2c1[nH]c1ccc(-c3ccccc3)cc21` (stereo not shown) [ONC0003116, casin], the “% viability” value is given as 73.94%. Consider `O=C(CCCCCCC(=O)NO)NO` [ONC0001756, sbha], for which the “% viability” value was determined as 85.39%.

As to `O=C(Nc1ccc(S(=O)(=O)Nc2nccs2)cc1)C(c1ccccc1)c1ccccc1` [ONC0000915, ica121431], the “% viability” value worked out at 66.28%. Consider `O=C1c2ccccc2-c2c(NCCc3ccccc3)c(=O)[nH]c3cccc1c23` [ONC0001816, brd7389], for which the “% viability” value was determined as 84.69%. `CO/N=C(\C(=O)N[C@@H]1C(=O)N2C(C(=O)O)=C(CSc3nc(=O)c(=O)[nH]n3C)CS[C@H]12)c1csc(N)n1` [ONC0002887, ceftriaxone sodium trihydrate]: the “% viability” value is reported as 67.76%. As for `C[C@H]1CCO[C@H]2Cn3cc(C(=O)NCc4ccc(F)cc4F)c(=O)c(O)c3C(=O)N21` [ONC0005021, dolutegravir gsk1349572], the figure is 76.89%. With `CCCOc1ccc2c(c1)CC[C@@H]1[C@@H]2CC[C@]2(C)[C@@H](OC)CC[C@@H]12` [ONC0004758, promestriene], the “% viability” value is listed as 100.2%. As for `C[Se]CCC(N)C(=O)O` (stereo not shown) [ONC0005356, selenomethionine], the figure is 116.1%; as for `Fc1cc(F)c2c(c1)[C@H]1C=CC[C@H]1C(c1cccnc1)N2` (mixture of isomers) [ONC0005186, golgicide a], 78.39%. As for `Cc1cccc(/C=N/Nc2cc(N3CCOCC3)n3nc(-c4ccncc4)cc3n2)c1` [ONC0001850, apy0201], the figure is 75.86%; as for `CC(C)[C@H](CO)Nc1nc(Nc2cccc(Cl)c2)c2ncn(C(C)C)c2n1` [ONC0001475, purvalanola], 75.49%; as for `Cc1[nH]c(=O)c(C#N)cc1-c1ccncc1` [ONC0004020, milrinone], 62.46%. With `N#Cc1c[nH]c2c(C(=O)N3CCN(CCc4ccc(F)cc4)CC3)cccc12` [ONC0002198, pruvanserin], the “% viability” value is on record as 102.9%.

Consider `CN(C)CCC=C1c2ccccc2CCc2ccccc21` [ONC0003200, amitriptyline hydrochloride], for which the “% viability” value is on record as 117.8%. Regarding `Cc1ccnc2c1NC(=O)c1cccnc1N2C1CC1` [ONC0002459, nevirapine], the “% viability” value was determined as 62.76%. Take `C#C[C@]1(O)CC[C@H]2[C@@H]3CCc4cc(OC5CCCC5)ccc4[C@H]3CC[C@@]21C` [ONC0004086, quinestrol]: the “% viability” value came out at 135.7%. As for `CC(=O)c1cc([N+](=O)[O-])c(Sc2cccc(Cl)c2Cl)s1` [ONC0005124, p5091 p005091], the figure is 122.7%; as for `Oc1ccc(Cl)c2c1CCC2` [ONC0002182, chlorindanol], 87.34%. As for `CCN1C(C)(C)CC(Oc2ccc(C(=O)Nc3ccc(NC(=O)Nc4cc(C(C)(C)C)on4)cc3)nc2)CC1(C)C` [ONC0001761, ac710], the figure is 92.29%; as for `CS(=O)(=O)c1ccc(C2=C(c3ccccc3)C(=O)OC2)cc1` [ONC0001095, rofecoxib], 82.56%. For `CCC/C=C1\OC(=O)C2=C1CCC=C2` [ONC0002227, ligustilide], the “% viability” value is 61.12%. As for `Cn1c(=O)c2[nH]cnc2n(C)c1=O` [ONC0000574, theophylline], the figure is 77.82%; as for `COc1ccc(N(C)c2nc(C)nc3ccccc23)cc1` [ONC0001332, verubulin], 79.48%; as for `COc1cc(N)c(Cl)cc1C(=O)NC1CN2CCC1CC2` (stereo not shown) [ONC0002762, zacopride], 121.8%. As for `CN(C(=O)c1ccc(F)cc1C(F)(F)F)C1CCN(c2nnc(-c3ccnn3C)c3ccccc23)CC1` [ONC0002243, taladegib], the figure is 65.41%.
